Assay results as given in the supplement of paper PMC10849652.
This is one part of the list.

Sequences of proteins named here, by UniProt entry; tags and fusion partners are left off. A change or cut given only in a name is not applied to a line headed by its entry.
UniProt Q12962, whole entry, looked up: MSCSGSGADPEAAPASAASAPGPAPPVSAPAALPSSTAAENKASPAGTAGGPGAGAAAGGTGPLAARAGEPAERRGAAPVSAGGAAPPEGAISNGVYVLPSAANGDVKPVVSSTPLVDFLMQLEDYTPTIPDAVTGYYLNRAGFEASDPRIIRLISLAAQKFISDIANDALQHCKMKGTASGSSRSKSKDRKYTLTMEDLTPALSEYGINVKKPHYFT
UniProt O15056: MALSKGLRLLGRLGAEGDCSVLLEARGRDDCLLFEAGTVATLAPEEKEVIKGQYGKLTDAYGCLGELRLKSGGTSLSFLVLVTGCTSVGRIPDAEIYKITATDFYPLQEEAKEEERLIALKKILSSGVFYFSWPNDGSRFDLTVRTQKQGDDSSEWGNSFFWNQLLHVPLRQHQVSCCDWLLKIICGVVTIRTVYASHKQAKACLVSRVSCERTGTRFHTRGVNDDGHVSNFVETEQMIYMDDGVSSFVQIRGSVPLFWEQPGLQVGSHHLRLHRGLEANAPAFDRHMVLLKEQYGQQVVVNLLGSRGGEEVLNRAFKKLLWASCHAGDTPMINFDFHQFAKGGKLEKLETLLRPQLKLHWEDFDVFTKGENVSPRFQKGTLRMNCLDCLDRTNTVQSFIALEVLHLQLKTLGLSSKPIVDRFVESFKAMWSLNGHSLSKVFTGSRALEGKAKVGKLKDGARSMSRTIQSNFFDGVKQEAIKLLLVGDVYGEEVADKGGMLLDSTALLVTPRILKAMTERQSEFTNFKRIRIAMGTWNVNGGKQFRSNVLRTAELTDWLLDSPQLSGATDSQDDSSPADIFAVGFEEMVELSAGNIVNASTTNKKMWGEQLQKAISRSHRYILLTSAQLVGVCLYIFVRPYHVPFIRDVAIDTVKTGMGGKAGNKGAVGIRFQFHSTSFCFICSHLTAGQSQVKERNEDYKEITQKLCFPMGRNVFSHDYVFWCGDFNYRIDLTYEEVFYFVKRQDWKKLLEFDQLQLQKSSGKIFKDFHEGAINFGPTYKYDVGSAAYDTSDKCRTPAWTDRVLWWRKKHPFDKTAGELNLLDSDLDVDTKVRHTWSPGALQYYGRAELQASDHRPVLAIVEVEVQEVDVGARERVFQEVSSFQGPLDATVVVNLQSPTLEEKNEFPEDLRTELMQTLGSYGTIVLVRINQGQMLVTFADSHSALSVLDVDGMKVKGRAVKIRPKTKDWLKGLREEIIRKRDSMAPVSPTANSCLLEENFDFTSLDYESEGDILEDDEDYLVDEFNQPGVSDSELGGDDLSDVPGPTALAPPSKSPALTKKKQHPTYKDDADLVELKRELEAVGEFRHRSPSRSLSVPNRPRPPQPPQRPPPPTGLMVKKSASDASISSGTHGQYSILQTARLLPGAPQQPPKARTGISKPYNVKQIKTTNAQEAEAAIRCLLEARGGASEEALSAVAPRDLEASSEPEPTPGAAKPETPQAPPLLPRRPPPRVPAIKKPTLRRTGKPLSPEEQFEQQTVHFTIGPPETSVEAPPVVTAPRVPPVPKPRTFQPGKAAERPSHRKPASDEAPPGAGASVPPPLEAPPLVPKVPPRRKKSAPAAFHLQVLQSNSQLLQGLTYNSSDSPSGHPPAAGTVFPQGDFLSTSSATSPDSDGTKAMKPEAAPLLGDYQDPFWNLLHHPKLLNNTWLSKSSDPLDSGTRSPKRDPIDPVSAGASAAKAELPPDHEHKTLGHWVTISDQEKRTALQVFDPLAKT
UniProt P61764, whole entry, looked up: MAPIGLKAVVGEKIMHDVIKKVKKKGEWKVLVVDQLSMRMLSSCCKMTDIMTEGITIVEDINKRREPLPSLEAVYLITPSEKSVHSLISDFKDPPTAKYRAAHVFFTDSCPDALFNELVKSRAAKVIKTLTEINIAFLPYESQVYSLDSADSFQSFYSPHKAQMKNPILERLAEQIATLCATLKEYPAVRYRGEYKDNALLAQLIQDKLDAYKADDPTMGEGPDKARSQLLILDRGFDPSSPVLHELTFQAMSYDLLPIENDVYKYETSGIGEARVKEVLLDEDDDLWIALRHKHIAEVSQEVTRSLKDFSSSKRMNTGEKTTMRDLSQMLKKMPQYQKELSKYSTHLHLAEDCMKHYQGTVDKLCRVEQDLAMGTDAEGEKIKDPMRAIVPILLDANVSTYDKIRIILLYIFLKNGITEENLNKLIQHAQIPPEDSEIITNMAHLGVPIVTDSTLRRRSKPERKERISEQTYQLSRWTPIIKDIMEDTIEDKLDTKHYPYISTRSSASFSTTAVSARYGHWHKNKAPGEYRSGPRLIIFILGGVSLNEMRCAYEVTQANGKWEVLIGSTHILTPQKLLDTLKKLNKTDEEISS
UniProt P55854, whole entry, looked up: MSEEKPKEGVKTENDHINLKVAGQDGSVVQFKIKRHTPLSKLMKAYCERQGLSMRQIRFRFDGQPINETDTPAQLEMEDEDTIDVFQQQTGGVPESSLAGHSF
UniProt Q96A49: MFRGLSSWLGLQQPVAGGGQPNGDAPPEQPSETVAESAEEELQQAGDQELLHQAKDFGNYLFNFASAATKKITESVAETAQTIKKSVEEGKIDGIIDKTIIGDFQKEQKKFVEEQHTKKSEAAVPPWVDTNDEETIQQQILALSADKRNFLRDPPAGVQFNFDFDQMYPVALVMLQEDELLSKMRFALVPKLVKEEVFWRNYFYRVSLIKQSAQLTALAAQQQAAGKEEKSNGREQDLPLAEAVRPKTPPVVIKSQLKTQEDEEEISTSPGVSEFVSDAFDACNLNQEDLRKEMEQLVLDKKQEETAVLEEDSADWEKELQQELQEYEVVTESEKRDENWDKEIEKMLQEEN
UniProt Q15526: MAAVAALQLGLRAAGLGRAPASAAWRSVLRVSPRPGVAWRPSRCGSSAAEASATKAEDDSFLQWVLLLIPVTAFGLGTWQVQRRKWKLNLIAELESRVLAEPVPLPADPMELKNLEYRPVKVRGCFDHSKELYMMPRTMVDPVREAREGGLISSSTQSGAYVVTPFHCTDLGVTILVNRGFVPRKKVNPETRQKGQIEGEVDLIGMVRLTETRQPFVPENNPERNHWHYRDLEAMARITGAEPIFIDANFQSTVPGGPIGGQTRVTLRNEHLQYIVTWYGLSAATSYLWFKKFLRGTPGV
UniProt O43752: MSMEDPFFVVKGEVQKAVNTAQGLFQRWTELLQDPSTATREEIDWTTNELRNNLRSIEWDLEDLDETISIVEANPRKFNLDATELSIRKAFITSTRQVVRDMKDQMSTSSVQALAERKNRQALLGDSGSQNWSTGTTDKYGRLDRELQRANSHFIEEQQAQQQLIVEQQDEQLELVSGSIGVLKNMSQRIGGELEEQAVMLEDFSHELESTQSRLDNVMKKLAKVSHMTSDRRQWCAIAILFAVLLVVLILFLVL
UniProt Q9NRP7: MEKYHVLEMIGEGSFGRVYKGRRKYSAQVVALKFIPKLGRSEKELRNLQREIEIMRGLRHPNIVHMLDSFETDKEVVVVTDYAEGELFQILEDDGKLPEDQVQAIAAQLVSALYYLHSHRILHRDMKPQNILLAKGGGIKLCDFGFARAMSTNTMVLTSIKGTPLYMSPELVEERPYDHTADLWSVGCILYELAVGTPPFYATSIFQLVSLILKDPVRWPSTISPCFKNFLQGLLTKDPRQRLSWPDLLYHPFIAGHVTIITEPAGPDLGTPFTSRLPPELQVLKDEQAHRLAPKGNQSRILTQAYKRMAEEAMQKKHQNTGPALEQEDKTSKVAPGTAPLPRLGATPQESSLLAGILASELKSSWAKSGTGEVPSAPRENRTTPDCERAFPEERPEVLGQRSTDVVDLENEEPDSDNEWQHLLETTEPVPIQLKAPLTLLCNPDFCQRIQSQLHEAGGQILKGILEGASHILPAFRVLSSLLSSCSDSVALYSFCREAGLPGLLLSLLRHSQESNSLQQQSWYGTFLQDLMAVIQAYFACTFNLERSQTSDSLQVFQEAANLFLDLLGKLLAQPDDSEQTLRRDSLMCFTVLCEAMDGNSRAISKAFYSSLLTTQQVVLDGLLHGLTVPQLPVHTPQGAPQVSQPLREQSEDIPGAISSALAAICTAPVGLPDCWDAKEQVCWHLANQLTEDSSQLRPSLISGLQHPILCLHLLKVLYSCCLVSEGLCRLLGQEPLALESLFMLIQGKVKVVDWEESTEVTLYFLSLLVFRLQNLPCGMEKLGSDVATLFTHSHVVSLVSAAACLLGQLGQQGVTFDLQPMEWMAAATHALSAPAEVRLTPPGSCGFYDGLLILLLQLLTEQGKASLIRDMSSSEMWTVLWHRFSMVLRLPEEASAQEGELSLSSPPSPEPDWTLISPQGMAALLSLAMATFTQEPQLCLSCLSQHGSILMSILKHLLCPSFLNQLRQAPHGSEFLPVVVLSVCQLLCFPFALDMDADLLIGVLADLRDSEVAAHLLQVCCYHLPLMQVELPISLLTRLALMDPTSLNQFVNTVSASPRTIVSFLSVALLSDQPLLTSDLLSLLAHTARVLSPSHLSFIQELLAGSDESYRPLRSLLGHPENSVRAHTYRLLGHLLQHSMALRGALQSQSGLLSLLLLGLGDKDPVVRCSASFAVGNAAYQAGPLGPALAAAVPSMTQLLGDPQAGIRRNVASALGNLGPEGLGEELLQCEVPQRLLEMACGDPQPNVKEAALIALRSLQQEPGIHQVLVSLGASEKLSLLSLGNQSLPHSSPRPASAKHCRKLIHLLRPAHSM
UniProt Q5VSL9: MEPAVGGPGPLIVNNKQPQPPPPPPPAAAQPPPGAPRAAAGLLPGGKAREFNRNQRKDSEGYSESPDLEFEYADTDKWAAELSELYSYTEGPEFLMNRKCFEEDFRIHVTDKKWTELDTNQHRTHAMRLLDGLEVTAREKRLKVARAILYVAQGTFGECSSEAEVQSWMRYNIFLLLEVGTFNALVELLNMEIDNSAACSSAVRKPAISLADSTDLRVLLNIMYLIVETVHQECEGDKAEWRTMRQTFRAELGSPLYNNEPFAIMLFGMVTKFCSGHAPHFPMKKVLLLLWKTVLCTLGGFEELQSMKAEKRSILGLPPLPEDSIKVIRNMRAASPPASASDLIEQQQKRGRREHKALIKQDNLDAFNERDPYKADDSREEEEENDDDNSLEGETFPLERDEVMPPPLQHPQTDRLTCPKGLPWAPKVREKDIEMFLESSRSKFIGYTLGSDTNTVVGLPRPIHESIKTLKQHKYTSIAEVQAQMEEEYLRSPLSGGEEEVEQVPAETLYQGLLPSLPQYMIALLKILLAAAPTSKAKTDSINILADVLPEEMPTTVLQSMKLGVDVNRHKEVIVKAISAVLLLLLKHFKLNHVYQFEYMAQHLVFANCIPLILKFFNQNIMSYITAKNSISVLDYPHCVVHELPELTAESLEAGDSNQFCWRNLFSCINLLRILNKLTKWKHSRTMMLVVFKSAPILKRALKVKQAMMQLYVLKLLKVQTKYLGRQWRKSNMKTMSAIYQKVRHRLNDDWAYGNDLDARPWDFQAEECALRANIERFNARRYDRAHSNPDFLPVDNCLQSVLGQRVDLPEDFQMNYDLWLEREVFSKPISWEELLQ
UniProt P0DMM9: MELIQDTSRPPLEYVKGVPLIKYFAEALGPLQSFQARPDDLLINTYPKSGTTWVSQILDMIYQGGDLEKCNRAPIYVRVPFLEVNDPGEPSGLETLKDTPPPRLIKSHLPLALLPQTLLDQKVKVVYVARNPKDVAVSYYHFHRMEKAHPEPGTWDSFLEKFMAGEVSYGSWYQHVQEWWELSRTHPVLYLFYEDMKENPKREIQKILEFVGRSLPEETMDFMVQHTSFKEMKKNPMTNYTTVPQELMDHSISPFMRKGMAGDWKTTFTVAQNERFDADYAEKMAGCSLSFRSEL
UniProt P16949: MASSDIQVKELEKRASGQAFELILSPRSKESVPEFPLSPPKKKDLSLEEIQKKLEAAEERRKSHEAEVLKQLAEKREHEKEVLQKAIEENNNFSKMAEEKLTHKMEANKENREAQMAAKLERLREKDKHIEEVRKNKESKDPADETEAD
UniProt Q9H668: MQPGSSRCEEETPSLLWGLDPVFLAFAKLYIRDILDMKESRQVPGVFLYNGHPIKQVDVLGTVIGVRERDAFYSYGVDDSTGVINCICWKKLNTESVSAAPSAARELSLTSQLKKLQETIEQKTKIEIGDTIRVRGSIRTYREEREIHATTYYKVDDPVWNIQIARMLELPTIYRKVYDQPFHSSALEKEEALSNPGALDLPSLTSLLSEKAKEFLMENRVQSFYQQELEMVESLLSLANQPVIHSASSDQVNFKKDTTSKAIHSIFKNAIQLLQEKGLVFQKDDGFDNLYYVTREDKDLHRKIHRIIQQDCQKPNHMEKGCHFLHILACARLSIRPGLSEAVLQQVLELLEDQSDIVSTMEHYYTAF
UniProt P08247, whole entry, looked up: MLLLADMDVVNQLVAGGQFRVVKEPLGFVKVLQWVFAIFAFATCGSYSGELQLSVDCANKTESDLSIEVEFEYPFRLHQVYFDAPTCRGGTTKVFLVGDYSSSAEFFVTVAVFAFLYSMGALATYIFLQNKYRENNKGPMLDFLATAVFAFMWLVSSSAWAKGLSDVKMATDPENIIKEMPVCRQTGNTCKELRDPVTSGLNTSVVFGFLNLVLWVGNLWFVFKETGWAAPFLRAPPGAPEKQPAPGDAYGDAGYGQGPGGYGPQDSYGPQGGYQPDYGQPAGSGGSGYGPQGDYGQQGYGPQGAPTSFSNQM

How the values were obtained:
Experiment in all cases: log2 fold change, soluble protein after heating vs DMSO (PISA); higher = thermal stabilisation; K562 lysate, 10 uM; active = over 0.2 and 3.5 SD of the protein, either way, in both replicates (recomputed)
alvocidib = compound: CN1CC[C@H](c2c(O)cc(O)c3c(=O)cc(-c4ccccc4Cl)oc23)[C@H](O)C1 [alvocidib]
Procedure, shortened: (§1)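 K562 pellets were dounce-homogenised in PBS pH 7.4 with 1 mM MgCl2, and the crude extract at 1 mg/mL protein was treated with 10 μM compound for 30 min. Aliquots were heated for 3 min across 48°C-58°C, pooled, and brought to 0.5% NP-40 at 4°C; soluble protein was the supernatant after 21,000xg for 90 min. Soluble protein was quantified by TMTpro 16plex LC-MS/MS with channel sums equalised, and reported as log2 fold change in thermal stability against DMSO controls, with values from duplicates.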

Tubastatin A = compound: CN1CCc2c(c3ccccc3n2Cc2ccc(C(=O)NO)cc2)C1 [Tubastatin A]
Procedure, shortened: as §1

[1] = compound: CNC(=O)C1=CC=CC=C1NC2=NC(=NC=C2Cl)NC3=C(C=C(C=C3)N4CCOCC4)OC
Procedure, shortened: as §1

defactinib = compound: CNC(=O)c1ccc(Nc2ncc(C(F)(F)F)c(NCc3nccnc3N(C)S(C)(=O)=O)n2)cc1 [defactinib]
Procedure, shortened: as §1

[2] = compound: CNc1nc(-c2ccc3c(N)n[nH]c3c2)cc(N2C[C@@H](C(=O)NC3CCCCC3)CC[C@H]2C)n1
Procedure, shortened: as §1

encorafenib = compound: COC(=O)N[C@@H](C)CNc1nccc(-c2cn(C(C)C)nc2-c2cc(Cl)cc(NS(C)(=O)=O)c2F)n1 [encorafenib]
Procedure, shortened: as §1

[3] = compound: COC(=O)[C@H](CCSC)NC(=O)C1=C(C=C(C=C1)NC[C@H](CS)N)C2=CC=CC=C2
Procedure, shortened: as §1

alisertib = compound: COc1cc(Nc2ncc3c(n2)-c2ccc(Cl)cc2C(c2c(F)cccc2OC)=NC3)ccc1C(=O)O [alisertib]
Procedure, shortened: as §1

[4] = compound: COc1cc2nc(-c3cc(F)ccc3O)nc(N[C@@H]3CNC[C@H]3C(C)(C)O)c2cc1OC
Procedure, shortened: as §1

gefitinib = compound: COc1cc2ncnc(Nc3ccc(F)c(Cl)c3)c2cc1OCCCN1CCOCC1 [gefitinib]
Procedure, shortened: as §1

| Target | log2 fold change (alvocidib) | log2 fold change (Tubastatin A) | log2 fold change [1] | log2 fold change (defactinib) | log2 fold change [2] | log2 fold change (encorafenib) | log2 fold change [3] | log2 fold change (alisertib) | log2 fold change [4] | log2 fold change (gefitinib) |
| --- | --- | --- | --- | --- | --- | --- | --- | --- | --- | --- |
| TAF10 (UniProt Q12962) | inactive: 0.074 | inactive: -0.019 | inactive: 0.017 | inactive: 0.046 | inactive: -0.027 | inactive: -0.009 | inactive: -0.145 | inactive: -0.039 | inactive: -0.046 | inactive: -0.124 |
| SYNJ1 (UniProt O43426) | inactive: -0.056 | inactive: -0.028 | inactive: -0.006 | inactive: 0.034 | inactive: 0.016 | inactive: 0.041 | inactive: -0.004 | inactive: 0.028 | inactive: -0.019 | inactive: 0.071 |
| STRBP (UniProt Q96SI9) | inactive: -0.043 | inactive: -0.023 | inactive: 0.03 | inactive: 0.011 | inactive: 0.087 | inactive: 0.067 | inactive: 0.098 | inactive: -0.003 | inactive: 0.012 | inactive: -0.004 |
| SYNJ2 (UniProt O15056) | inactive: -0.015 | inactive: 0.019 | inactive: -0.007 | inactive: -0.055 | inactive: 0.025 | inactive: 0 | inactive: 0.241 | inactive: -0.056 | inactive: -0.016 | inactive: -0.021 |
| SUPT7L (UniProt O94864) | inactive: 0.011 | inactive: -0.115 | inactive: 0.064 | inactive: 0.026 | inactive: 0.037 | inactive: 0.095 | inactive: 0.057 | inactive: 0.105 | inactive: 0.07 | inactive: 0.046 |
| SULT1A1 (UniProt P50225) | inactive: 0.031 | inactive: -0.043 | inactive: 0.018 | inactive: -0.11 | inactive: 0.06 | inactive: 0.026 | inactive: 0.017 | inactive: 0.036 | inactive: -0.005 | inactive: -0.011 |
| STXBP1 (UniProt P61764) | inactive: -0.028 | inactive: 0.007 | inactive: 0.006 | inactive: 0.02 | inactive: 0.018 | inactive: -0.001 | inactive: 0.044 | inactive: -0.006 | inactive: -0.028 | inactive: -0.011 |
| SUMO3 isoform 2 (UniProt P55854) | inactive: 0.009 | inactive: 0.129 | inactive: 0.018 | inactive: -0.032 | inactive: 0.038 | inactive: -0.003 | inactive: -0.051 | inactive: -0.026 | inactive: 0.017 | inactive: -0.113 |
| SYAP1 (UniProt Q96A49) | inactive: -0.045 | inactive: 0.072 | inactive: 0.068 | inactive: 0.036 | inactive: 0.118 | inactive: 0.165 | inactive: -0.024 | inactive: 0.035 | inactive: 0.029 | inactive: 0.019 |
| SYMPK (UniProt Q92797) | inactive: 0.006 | inactive: -0.042 | inactive: 0.019 | inactive: -0.004 | inactive: 0.004 | inactive: 0.014 | inactive: 0.151 | inactive: -0.007 | inactive: 0.004 | inactive: -0.012 |
| STRN (UniProt O43815) | inactive: -0.03 | inactive: -0.012 | inactive: -0.004 | inactive: 0.026 | inactive: -0.006 | inactive: 0.007 | inactive: 0.052 | inactive: -0.012 | inactive: -0.005 | inactive: -0.005 |
| SURF1 (UniProt Q15526) | inactive: -0.024 | inactive: -0.032 | inactive: 0.036 | inactive: 0.038 | inactive: -0.086 | inactive: 0.047 | inactive: 0.062 | inactive: -0.196 | inactive: -0.077 | inactive: 0.005 |
| STX6 (UniProt O43752) | inactive: 0.029 | inactive: 0.049 | inactive: -0.023 | inactive: 0 | inactive: 0.022 | inactive: 0.037 | inactive: -0.043 | inactive: -0.02 | inactive: 0.016 | inactive: -0.002 |
| STK36 (UniProt Q9NRP7) | inactive: -0.33 | inactive: 0.331 | inactive: -0.048 | inactive: -0.263 | inactive: 0.528 | inactive: -0.027 | inactive: 0.042 | inactive: 0.081 | inactive: 0.199 | inactive: -0.093 |
| STRIP1 (UniProt Q5VSL9) | inactive: 0.002 | inactive: -0.078 | inactive: 0.019 | inactive: 0.024 | inactive: 0.004 | inactive: -0.015 | inactive: 0.027 | inactive: -0.005 | inactive: -0.017 | inactive: 0.053 |
| SUPT4H1 (UniProt P63272) | inactive: 0.054 | inactive: -0.009 | inactive: 0.04 | inactive: 0.033 | inactive: 0.061 | inactive: -0.009 | inactive: -0.101 | inactive: -0.01 | inactive: 0.024 | inactive: 0 |
| SURF6 (UniProt O75683) | inactive: -0.006 | inactive: 0.022 | inactive: 0.009 | inactive: 0.025 | inactive: 0.083 | inactive: 0.015 | inactive: -0.102 | inactive: -0.04 | inactive: 0.028 | inactive: 0.005 |
| SYNE1 (UniProt Q8NF91) | inactive: 0.024 | inactive: 0.151 | inactive: 0.028 | inactive: -0.036 | inactive: 0.543 | inactive: -0.12 | inactive: 0.077 | inactive: -0.058 | inactive: 0.083 | inactive: -0.112 |
| TAF15 (UniProt Q92804) | inactive: 0.04 | inactive: 0.022 | inactive: -0.007 | inactive: 0.024 | inactive: 0.015 | inactive: -0.03 | inactive: -0.068 | inactive: 0.06 | inactive: -0.007 | inactive: -0.065 |
| TACC1 (UniProt O75410) | inactive: 0.005 | inactive: -0.027 | inactive: 0.026 | inactive: 0.062 | inactive: 0.067 | inactive: 0.106 | inactive: -0.114 | inactive: 0.028 | inactive: 0.001 | inactive: 0.056 |
| STK39 (UniProt Q9UEW8) | inactive: 0.011 | inactive: -0.128 | inactive: -0.015 | inactive: 0 | inactive: -0.026 | inactive: -0.021 | inactive: 0.164 | inactive: -0.055 | inactive: 0.02 | inactive: 0.028 |
| SUSD1 isoform 2 (UniProt Q6UWL2) | inactive: -0.12 | inactive: 0.01 | inactive: -0.087 | – | inactive: 0.1 | inactive: 0.09 | inactive: -0.145 | – | – | – |
| TACO1 (UniProt Q9BSH4) | inactive: 0.009 | inactive: -0.015 | inactive: 0.028 | inactive: -0.009 | inactive: 0.058 | inactive: 0.031 | inactive: -0.008 | inactive: 0.043 | inactive: -0.062 | inactive: -0.007 |
| STIM2 isoform 2 (UniProt Q9P246) | inactive: 0.005 | inactive: -0.051 | inactive: -0.039 | – | inactive: -0.027 | inactive: 0 | inactive: -0.001 | inactive: -0.108 | inactive: -0.137 | inactive: 0.19 |
| SULT1A3 isoform 3 (UniProt P0DMM9) | inactive: 0.086 | inactive: -0.068 | inactive: 0.064 | – | inactive: -0.225 | inactive: 0.019 | inactive: -0.005 | inactive: -0.027 | – | inactive: 0.027 |
| STMN1 (UniProt P16949) | inactive: 0.024 | inactive: 0.075 | inactive: -0.013 | inactive: 0.039 | inactive: 0.05 | inactive: -0.021 | inactive: -0.029 | inactive: -0.014 | inactive: -0.003 | inactive: -0.03 |
| STN1 (UniProt Q9H668) | inactive: -0.078 | inactive: -0.032 | inactive: 0.173 | inactive: 0.016 | – | inactive: 0.024 | inactive: -0.149 | inactive: -0.026 | active: -0.562 | inactive: 0.053 |
| SYNGR1 isoform 2 (UniProt O43759) | inactive: 0.04 | inactive: 0.217 | inactive: -0.12 | – | – | inactive: -0.127 | inactive: 0.168 | – | – | – |
| SYP (UniProt P08247) | inactive: -0.085 | inactive: -0.128 | inactive: 0.114 | inactive: -0.057 | inactive: 0.02 | inactive: -0.105 | inactive: -0.041 | inactive: -0.005 | inactive: 0.08 | inactive: 0.086 |

2 records picked at random from the list so far, as already listed:

| Target | log2 fold change (alvocidib) | log2 fold change (Tubastatin A) | log2 fold change [1] | log2 fold change (defactinib) | log2 fold change [2] | log2 fold change (encorafenib) | log2 fold change [3] | log2 fold change (alisertib) | log2 fold change [4] | log2 fold change (gefitinib) |
| --- | --- | --- | --- | --- | --- | --- | --- | --- | --- | --- |
| STN1 (UniProt Q9H668) | inactive: -0.078 | inactive: -0.032 | inactive: 0.173 | inactive: 0.016 | – | inactive: 0.024 | inactive: -0.149 | inactive: -0.026 | active: -0.562 | inactive: 0.053 |
| STK36 (UniProt Q9NRP7) | inactive: -0.33 | inactive: 0.331 | inactive: -0.048 | inactive: -0.263 | inactive: 0.528 | inactive: -0.027 | inactive: 0.042 | inactive: 0.081 | inactive: 0.199 | inactive: -0.093 |
